Data taken from patent publication US20160279215A1, “NOVEL PEPTIDES AND COMBINATION OF PEPTIDES FOR USE IN IMMUNOTHERAPY AGAINST VARIOUS TUMORS” (immatics biotechnologies GmbH, priority 2015, published 2016).

Key:
[1] = Identification and label-free relative LC-MS quantitation of HLA-presented peptides on tumor and normal tissue samples (XPRESIDENT presentation profiles); design: species or system human; conditions: for Entities of particular interest: entities where the peptide was over-presented on cancer samples compared to normal tissues; for Additional entities of particular interest (presentation of selected peptides across entities): tumor entities on which the HLA-presented peptide was found, entity abbreviations defined in the title of Table 4B
[2] = test system: source genes of the peptides (mRNA) in tumor and normal tissue; assay: Expression profiling of source genes by Affymetrix microarrays (target coverage); design: species or system human; conditions: over-expression = more than 1.5-fold higher expression on tumor vs. normal tissue with highest expression, gene with minimal coverage decisive; for Target coverage for source genes of selected peptides, BPHI/PCA (%): BPHI/PCA (prostate cancer) samples; for Target coverage for source genes of selected peptides, CRC (%): CRC tumor samples; for Target coverage for source genes of selected peptides, GB (%): GB tumor samples; for Target coverage for source genes of selected peptides, GC (%): GC tumor samples; for Target coverage for source genes of selected peptides, HCC (%): HCC tumor samples; for Target coverage for source genes of selected peptides, NSCLC (%): NSCLC tumor samples; for Target coverage for source genes of selected peptides, PC (%): PC tumor samples; for Target coverage for source genes of selected peptides, RCC (%): RCC tumor samples

| Substance | Entities of particular interest [1] | Target coverage for source genes of selected peptides, BPHI/PCA (%) [2] | Target coverage for source genes of selected peptides, CRC (%) [2] | Target coverage for source genes of selected peptides, GB (%) [2] | Target coverage for source genes of selected peptides, GC (%) [2] | Target coverage for source genes of selected peptides, HCC (%) [2] | Target coverage for source genes of selected peptides, NSCLC (%) [2] | Target coverage for source genes of selected peptides, PC (%) [2] | Target coverage for source genes of selected peptides, RCC (%) [2] | Additional entities of particular interest (presentation of selected peptides across entities) [1] |
| --- | --- | --- | --- | --- | --- | --- | --- | --- | --- | --- |
| 35: peptide found in KIF11 (gene looked up) (VIIKGLEEI; listed as Homo sapiens) [compound 35] | GC, NSCLC, OSCAR | I (<19% over-expression = I) | II (20-49% = II) | I (<19% over-expression = I) | I (<19% over-expression = I) | I (<19% over-expression = I) | I (<19% over-expression = I) | I (<19% over-expression = I) | I (<19% over-expression = I) |  |
| 36: peptide found in KIF11 (gene looked up) (TVLQELINV; listed as Homo sapiens) [compound 36] | NSCLC, PC, OSCAR | I (<19% over-expression = I) | II (20-49% = II) | I (<19% over-expression = I) | I (<19% over-expression = I) | I (<19% over-expression = I) | I (<19% over-expression = I) | I (<19% over-expression = I) | I (<19% over-expression = I) | UBC, UTC, MEL, CRC, AML, NHL |
| 37: peptide found in KIF11 (gene looked up) (QIVELIEKI; listed as Homo sapiens) [compound 37] | GC, NSCLC, OSCAR | I (<19% over-expression = I) | II (20-49% = II) | I (<19% over-expression = I) | I (<19% over-expression = I) | I (<19% over-expression = I) | I (<19% over-expression = I) | I (<19% over-expression = I) | I (<19% over-expression = I) |  |
| 48: peptide found in CHEK1 (gene looked up) (KISDFGLATV; listed as Homo sapiens) [compound 48] | GB, NSCLC, PC, OSCAR | I (<19% over-expression = I) | IV (>70% = IV) | IV (>70% = IV) | IV (>70% = IV) | II (20-49% = II) | IV (>70% = IV) | II (20-49% = II) | II (20-49% = II) | OC, MEL |
| 52: peptide found in BRIP1 (gene looked up) (TIGIPFPNV; listed as Homo sapiens) [compound 52] | NSCLC, PC, OC | I (<19% over-expression = I) | I (<19% over-expression = I) | III (50-69% = III) | II (20-49% = II) | II (20-49% = II) | II (20-49% = II) | I (<19% over-expression = I) | I (<19% over-expression = I) | MEL, NHL |
| 58: peptide found in BUB1 (gene looked up) (HLLGEGAFAQV; listed as Homo sapiens) [compound 58] | NSCLC, PC | I (<19% over-expression = I) | III (50-69% = III) | III (50-69% = III) | III (50-69% = III) | I (<19% over-expression = I) | III (50-69% = III) | II (20-49% = II) | I (<19% over-expression = I) |  |
| 70: peptide found in KIF4A (gene looked up) (GLTEKTVLV; listed as Homo sapiens) [compound 70] | NSCLC, PC | I (<19% over-expression = I) | IV (>70% = IV) | III (50-69% = III) | III (50-69% = III) | I (<19% over-expression = I) | II (20-49% = II) | II (20-49% = II) | I (<19% over-expression = I) | CRC, AML, NHL |
| 93: peptide found in AURKA (gene looked up) (RLYGYFHDA; listed as Homo sapiens) [compound 93] | NSCLC, PC | I (<19% over-expression = I) | III (50-69% = III) | II (20-49% = II) | III (50-69% = III) | II (20-49% = II) | II (20-49% = II) | II (20-49% = II) | I (<19% over-expression = I) |  |
| 94: peptide found in ACKR2 (gene looked up) (YLDEVAFML; listed as Homo sapiens) [compound 94] | NSCLC, HCC, OC | I (<19% over-expression = I) | I (<19% over-expression = I) | I (<19% over-expression = I) | I (<19% over-expression = I) | I (<19% over-expression = I) | I (<19% over-expression = I) | II (20-49% = II) | I (<19% over-expression = I) | UBC, BRCA, GBC_CCC |
| 104: peptide found in KLK3 (gene looked up) (DLPTQEPALGTT; listed as Homo sapiens) [compound 104] |  | IV (>70% = IV) | I (<19% over-expression = I) | I (<19% over-expression = I) | I (<19% over-expression = I) | I (<19% over-expression = I) | I (<19% over-expression = I) |  | I (<19% over-expression = I) | BPH |
| 112: peptide found in KIF4A (gene looked up) (ILAQDVAQL; listed as Homo sapiens) [compound 112] |  | I (<19% over-expression = I) | IV (>70% = IV) | III (50-69% = III) | III (50-69% = III) | I (<19% over-expression = I) | II (20-49% = II) | II (20-49% = II) | I (<19% over-expression = I) | MEL, AML, NHL |
| 114: peptide found in NCAPH (gene looked up) (LLFPSDVQTL; listed as Homo sapiens) [compound 114] | PC, OSCAR | I (<19% over-expression = I) | III (50-69% = III) | II (20-49% = II) | III (50-69% = III) | I (<19% over-expression = I) | III (50-69% = III) | I (<19% over-expression = I) | I (<19% over-expression = I) |  |

For some of these results: For expression read-outs the peptide stands for its source gene, whose mRNA was measured; the gene is not named for every peptide.
